Source: the supplement of paper PMC12823440, “Inhibitors supercharge kinase turnover through native proteolytic circuits” (Nature, 2025)
Structures can show the parent of a compound that is named as a salt. This is one part of the list. The calls rarely recur for the same compound in another form.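 Kinases, fused to nanoluciferase, were expressed in K562 cells; luminescence was measured every 4 h from 2 to 18 h as percent of control (DMSO = 100%, positive control = 0%). A time point is decreased if signal falls significantly (2 sigma). Hits were called by the authors by a rule that is not shown; the count of time points alone does not decide it.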

Sequences of proteins named here, by UniProt entry; tags and fusion partners are left off.
UniProt P21860, whole entry: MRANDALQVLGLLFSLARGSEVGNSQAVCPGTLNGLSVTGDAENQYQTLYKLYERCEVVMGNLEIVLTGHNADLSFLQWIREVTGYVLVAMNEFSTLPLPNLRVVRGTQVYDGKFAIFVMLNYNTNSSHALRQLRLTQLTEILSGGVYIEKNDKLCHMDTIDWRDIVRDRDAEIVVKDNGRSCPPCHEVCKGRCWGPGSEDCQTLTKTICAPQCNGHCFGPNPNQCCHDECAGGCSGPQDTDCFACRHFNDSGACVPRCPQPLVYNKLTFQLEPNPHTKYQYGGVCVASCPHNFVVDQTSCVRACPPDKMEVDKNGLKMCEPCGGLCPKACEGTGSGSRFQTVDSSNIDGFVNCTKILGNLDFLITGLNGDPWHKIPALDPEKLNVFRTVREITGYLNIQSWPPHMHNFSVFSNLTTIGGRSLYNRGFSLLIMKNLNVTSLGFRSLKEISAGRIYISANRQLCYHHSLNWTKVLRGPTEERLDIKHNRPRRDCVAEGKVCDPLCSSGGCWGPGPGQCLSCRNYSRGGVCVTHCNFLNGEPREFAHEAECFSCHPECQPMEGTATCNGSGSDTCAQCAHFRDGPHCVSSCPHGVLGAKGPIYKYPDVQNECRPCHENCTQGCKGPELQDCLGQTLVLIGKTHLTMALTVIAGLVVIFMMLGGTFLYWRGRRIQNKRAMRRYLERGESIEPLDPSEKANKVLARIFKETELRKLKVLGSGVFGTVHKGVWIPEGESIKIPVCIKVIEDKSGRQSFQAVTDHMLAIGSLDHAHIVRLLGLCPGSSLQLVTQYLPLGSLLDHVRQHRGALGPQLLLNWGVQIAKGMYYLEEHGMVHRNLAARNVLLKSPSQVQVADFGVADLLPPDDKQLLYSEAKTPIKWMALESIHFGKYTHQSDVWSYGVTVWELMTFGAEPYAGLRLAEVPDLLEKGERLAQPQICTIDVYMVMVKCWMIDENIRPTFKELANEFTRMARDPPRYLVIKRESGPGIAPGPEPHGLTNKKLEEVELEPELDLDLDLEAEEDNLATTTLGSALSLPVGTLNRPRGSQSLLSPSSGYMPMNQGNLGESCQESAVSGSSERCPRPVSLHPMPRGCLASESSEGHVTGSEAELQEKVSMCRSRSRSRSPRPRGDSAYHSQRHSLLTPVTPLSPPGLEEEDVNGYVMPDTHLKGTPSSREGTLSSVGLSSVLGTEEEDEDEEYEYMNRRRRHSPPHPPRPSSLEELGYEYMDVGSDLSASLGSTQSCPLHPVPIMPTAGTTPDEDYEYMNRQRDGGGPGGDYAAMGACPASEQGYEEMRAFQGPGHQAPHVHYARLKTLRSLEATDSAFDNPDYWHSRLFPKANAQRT

molecular target: ERBB3 (UniProt P21860); assay: kinase-Nluc reporter destabilization hit call (1 = scored as downregulated) (binary); higher = compound decreases kinase abundance; conditions: K562; 2-18 h

kinase-Nluc reporter destabilization hit call, inactive:
O=C(Nc1ccccc1C(=O)NC1CCCCNC1=O)c1cc2ccccc2s1 (stereo not drawn) (10 µM) 0
CO[C@]1(C(=O)N[C@@H](C)c2ccc(-n3cc(F)cn3)nc2)CC[C@H](c2nc(C)cc(Nc3cc(C)[nH]n3)n2)CC1 [Pralsetinib] (10 µM) 0
O=[N+]([O-])c1ccc(-c2nc(-c3ccc(F)cc3)c(-c3ccncc3)[nH]2)cc1 (10 µM) 0
CC(ONC(=O)c1cc(C(F)(F)F)cc(C(F)(F)F)c1)C(=O)Nc1ccc(Cl)cc1 (stereo not drawn) (2.5 µM) 0
Cc1cncc2cccc(S(=O)(=O)N3CCCNC[C@@H]3C)c12 [H-1152 (dihydrochloride)] (10 µM) 0
Cc1nc(NC(=O)N2CCC[C@H]2C(N)=O)sc1-c1ccnc(C(C)(C)C(F)(F)F)c1 [Alpelisib] (2.5 µM) 0
CCCCNc1ncc2c(-c3ccc(F)cc3)nn(CC3CCC(N)CC3)c2n1 (stereo not drawn) (2.5 µM) 0
CS(=O)(=O)c1ccc([C@@H](CC2CCCC2)C(=O)Nc2nccs2)cc1 (10 µM) 0
CO/N=C1/C(c2c(O)[nH]c3cc(Cl)c(Cl)cc23)=Nc2ccccc21 (10 µM) 0
CNCc1ccccc1Sc1cccc2ccccc12 [IFN alpha-IFNAR-IN-1 (hydrochloride)] (10 µM) 0
C=CC(=O)N1CCC(c2ccc(C(N)=O)c(-c3ccc(Oc4ccccc4)cc3)n2)CC1 [Orelabrutinib] (2.5 µM) 0
Cc1cc2c(F)c(Oc3ncnn4cc(OC[C@@H](C)OC(=O)[C@H](C)N)c(C)c34)ccc2[nH]1 [Brivanib (alaninate)] (10 µM) 0
CCC(F)(F)c1cc(N2CCC(S(C)(=O)=O)CC2)nc2sc(C(N)=O)c(N)c12 (10 µM) 0
NC(=O)c1c(NC(=O)C2CC2)sc2c1CCCC2 (10 µM) 0
CC(C)=CCC[C@](C)(O[C@@H]1O[C@H](CO[C@@H]2O[C@H](CO)[C@@H](O)[C@H](O)[C@H]2O)[C@@H](O)[C@H](O)[C@H]1O)[C@H]1CC[C@]2(C)[C@@H]1[C@H](O)C[C@@H]1[C@@]3(C)CC[C@H](O[C@@H]4O[C@H](CO)[C@@H](O)[C@H](O)[C@H]4O[C@@H]4O[C@H](CO)[C@@H](O)[C@H](O)[C@H]4O)C(C)(C)[C@@H]3CC[C@]12C [Ginsenoside Rb1] (10 µM) 0
COc1cccc(-c2cc(=O)c3ccccc3o2)c1N (10 µM) 0
C[C@@H]1COC(Nc2ccc3ncnc(Nc4ccc(OCc5nccs5)c(Cl)c4)c3c2)=N1 [Varlitinib] (10 µM) 0
Cc1nc(Nc2cnn(C3CCNCC3)c2)nc2c1N(C)C(=O)c1cc3ccccc3cc1N2C (2.5 µM) 0

3 entries from above, ordered by molar mass, falling.
kinase-Nluc reporter destabilization hit call, inactive:
C[C@@H]1COC(Nc2ccc3ncnc(Nc4ccc(OCc5nccs5)c(Cl)c4)c3c2)=N1 [Varlitinib] (10 µM) 0
CC(ONC(=O)c1cc(C(F)(F)F)cc(C(F)(F)F)c1)C(=O)Nc1ccc(Cl)cc1 (stereo not drawn) (2.5 µM) 0
Cc1cncc2cccc(S(=O)(=O)N3CCCNC[C@@H]3C)c12 [H-1152 (dihydrochloride)] (10 µM) 0
